The exact form of at least one protein or probe is not confirmed. At least one verdict rests on a figure or table, not on a statement of the authors.

Amino acid sequences for entries named in this document (tags omitted). A change or cut given only in a name is not applied to a line headed by its entry.
UniProt Q9UGN5: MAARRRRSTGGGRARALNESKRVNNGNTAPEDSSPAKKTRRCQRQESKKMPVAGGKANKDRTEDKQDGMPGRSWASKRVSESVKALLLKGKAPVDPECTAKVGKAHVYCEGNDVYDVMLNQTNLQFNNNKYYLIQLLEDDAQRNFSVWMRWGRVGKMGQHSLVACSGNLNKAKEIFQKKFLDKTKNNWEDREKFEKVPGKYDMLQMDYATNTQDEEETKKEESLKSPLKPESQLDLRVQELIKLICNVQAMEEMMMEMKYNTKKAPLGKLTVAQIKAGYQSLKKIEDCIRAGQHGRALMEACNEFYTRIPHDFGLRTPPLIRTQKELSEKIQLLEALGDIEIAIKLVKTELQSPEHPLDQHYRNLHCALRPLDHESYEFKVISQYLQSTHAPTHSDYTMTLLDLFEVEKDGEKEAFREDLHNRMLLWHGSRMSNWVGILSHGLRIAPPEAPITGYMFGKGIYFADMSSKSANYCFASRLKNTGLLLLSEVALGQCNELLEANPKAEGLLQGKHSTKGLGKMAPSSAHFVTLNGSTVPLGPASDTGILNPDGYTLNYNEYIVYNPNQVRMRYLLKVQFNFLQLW

The target of data set [1] is hPARP2 (Homo sapiens) (UniProt Q9UGN5). Put plainly: EMSA. As to conditions: robust binding to 5'P blunt end; 5'-phosphate; EMSA: 50 mM HEPES pH 8, 100 mM NaCl, 10% glycerol, 10 mM DTT, 45 min at 4 °C, 7% native PAGE 0.5x TBE; recombinant protein; protein details: His; folded or branched DNA.
In data set [2] the test system is LoPARP2 (Lathyrus oleraceus 'Blauwschokker'). Put plainly: EMSA. The settings on record: robust binding to 5'P blunt end; 5'-phosphate; EMSA: 50 mM HEPES pH 8, 100 mM NaCl, 10% glycerol, 10 mM DTT, 45 min at 4 °C, 7% native PAGE 0.5x TBE; recombinant protein; protein details: His; folded or branched DNA. For orientation: In EMSA bound probe runs differently from free probe, usually more slowly.

Turning to “GGAAGTTCTTTTGAACTTCC [DNA-5 (5'P blunt)]”, the binding result in data set [1] and in data set [2] was “binds” each time.
